These results are taken from paper doi:10.1101/2020.09.18.302638.

The target of the assay is tyrosyl-tRNA synthetase (TyrRS) from Phaseolus vulgaris (common bean) (Phaseolus vulgaris (common bean)) (UniProt V7CJ18). The assay can be described thus: cryo-EM structure.

Results are given in words; binding and its absence hold for the method and conditions named. Some entries that bind do so weakly or less than the wild type.

B1: tyrosyl-tRNA synthetase (TyrRS) from Phaseolus vulgaris (common bean) (enzyme, UniProt V7CJ18 1-379)
chain: MEQAPSEALQSLSVSDSQIPQSSNSTPQLSPEEKFKIVRSVGEECIQEDELLNLLTKKPEPVCYDGFEPSGRMHIAQGVMKTISVNKLTSAGCRVKIWIADWFAKLNNKMGGDLKKIETVGRYLIEIWKAVGMDVEGGKVEFLWSSKEINARADEYWPLVLDIAQKNNLKRIIRCSQIMGRSEQDELTAAQIFYPCMQCADIFFLKADICQLGMDQRKVNVLAREYCDDIKRKNKPIILSHHMLPGLQQGQEKMSKSDPSSSVFMEDEEAEVNVKIKKAYCPPKVVEGNPCLEYIKYLILPWFNEFTVERSADNGGNKTFKSYEELIADYESGELHPADLKPALSKSLNKILEPVREHFRKDSNAKELLKRVKAYRVTK
For B1, the binding result is “binds”.
